Measured values taken from the supplement of paper PMC10849652.
Some of the results follow.

By UniProt entry, the sequences of proteins in these tests, tags left out. Where a name states a change or a piece, a line headed by the entry shows the natural chain unless it says otherwise.
UniProt Q96KF7: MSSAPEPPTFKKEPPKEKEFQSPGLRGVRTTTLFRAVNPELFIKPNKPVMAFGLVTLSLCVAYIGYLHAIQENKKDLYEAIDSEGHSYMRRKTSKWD
UniProt P62304, whole entry, looked up: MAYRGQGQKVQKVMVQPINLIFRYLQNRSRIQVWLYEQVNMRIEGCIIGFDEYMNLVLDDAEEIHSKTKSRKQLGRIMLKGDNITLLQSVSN
UniProt Q8WVK2: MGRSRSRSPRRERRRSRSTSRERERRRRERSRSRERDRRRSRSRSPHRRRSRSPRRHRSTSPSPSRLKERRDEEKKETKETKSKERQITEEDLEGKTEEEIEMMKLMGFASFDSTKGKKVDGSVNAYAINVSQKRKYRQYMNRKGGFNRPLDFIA
UniProt Q9H7B4: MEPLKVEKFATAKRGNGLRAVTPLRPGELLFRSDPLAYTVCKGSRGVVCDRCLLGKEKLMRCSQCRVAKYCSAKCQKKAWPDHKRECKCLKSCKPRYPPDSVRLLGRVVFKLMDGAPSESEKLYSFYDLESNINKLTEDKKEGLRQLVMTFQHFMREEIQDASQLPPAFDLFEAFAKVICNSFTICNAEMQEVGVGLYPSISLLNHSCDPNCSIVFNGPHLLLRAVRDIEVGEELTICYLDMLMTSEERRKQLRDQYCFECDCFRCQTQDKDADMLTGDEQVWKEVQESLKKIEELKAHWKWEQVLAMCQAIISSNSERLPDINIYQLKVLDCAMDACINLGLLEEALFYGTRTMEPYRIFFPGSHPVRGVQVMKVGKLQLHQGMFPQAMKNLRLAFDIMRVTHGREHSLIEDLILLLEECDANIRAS
UniProt Q92485: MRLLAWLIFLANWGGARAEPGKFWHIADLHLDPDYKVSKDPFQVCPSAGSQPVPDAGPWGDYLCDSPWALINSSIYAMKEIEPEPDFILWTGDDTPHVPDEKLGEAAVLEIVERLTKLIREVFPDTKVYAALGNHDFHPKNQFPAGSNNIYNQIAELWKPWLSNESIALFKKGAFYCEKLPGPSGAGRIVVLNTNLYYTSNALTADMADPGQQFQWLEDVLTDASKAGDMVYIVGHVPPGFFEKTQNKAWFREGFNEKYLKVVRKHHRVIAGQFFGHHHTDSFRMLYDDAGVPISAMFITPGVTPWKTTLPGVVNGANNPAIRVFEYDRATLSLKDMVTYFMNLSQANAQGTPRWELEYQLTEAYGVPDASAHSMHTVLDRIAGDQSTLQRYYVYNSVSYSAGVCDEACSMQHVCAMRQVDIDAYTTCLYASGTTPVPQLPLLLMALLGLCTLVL
UniProt P09486: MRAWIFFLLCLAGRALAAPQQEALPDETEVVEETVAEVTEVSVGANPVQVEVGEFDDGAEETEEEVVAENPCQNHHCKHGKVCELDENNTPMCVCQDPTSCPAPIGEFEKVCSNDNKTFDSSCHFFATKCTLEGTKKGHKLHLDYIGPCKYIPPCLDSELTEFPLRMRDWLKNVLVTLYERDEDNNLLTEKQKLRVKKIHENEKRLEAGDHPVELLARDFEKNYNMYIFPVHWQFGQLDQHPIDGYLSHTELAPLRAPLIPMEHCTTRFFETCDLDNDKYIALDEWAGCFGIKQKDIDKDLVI
UniProt Q8NDV3: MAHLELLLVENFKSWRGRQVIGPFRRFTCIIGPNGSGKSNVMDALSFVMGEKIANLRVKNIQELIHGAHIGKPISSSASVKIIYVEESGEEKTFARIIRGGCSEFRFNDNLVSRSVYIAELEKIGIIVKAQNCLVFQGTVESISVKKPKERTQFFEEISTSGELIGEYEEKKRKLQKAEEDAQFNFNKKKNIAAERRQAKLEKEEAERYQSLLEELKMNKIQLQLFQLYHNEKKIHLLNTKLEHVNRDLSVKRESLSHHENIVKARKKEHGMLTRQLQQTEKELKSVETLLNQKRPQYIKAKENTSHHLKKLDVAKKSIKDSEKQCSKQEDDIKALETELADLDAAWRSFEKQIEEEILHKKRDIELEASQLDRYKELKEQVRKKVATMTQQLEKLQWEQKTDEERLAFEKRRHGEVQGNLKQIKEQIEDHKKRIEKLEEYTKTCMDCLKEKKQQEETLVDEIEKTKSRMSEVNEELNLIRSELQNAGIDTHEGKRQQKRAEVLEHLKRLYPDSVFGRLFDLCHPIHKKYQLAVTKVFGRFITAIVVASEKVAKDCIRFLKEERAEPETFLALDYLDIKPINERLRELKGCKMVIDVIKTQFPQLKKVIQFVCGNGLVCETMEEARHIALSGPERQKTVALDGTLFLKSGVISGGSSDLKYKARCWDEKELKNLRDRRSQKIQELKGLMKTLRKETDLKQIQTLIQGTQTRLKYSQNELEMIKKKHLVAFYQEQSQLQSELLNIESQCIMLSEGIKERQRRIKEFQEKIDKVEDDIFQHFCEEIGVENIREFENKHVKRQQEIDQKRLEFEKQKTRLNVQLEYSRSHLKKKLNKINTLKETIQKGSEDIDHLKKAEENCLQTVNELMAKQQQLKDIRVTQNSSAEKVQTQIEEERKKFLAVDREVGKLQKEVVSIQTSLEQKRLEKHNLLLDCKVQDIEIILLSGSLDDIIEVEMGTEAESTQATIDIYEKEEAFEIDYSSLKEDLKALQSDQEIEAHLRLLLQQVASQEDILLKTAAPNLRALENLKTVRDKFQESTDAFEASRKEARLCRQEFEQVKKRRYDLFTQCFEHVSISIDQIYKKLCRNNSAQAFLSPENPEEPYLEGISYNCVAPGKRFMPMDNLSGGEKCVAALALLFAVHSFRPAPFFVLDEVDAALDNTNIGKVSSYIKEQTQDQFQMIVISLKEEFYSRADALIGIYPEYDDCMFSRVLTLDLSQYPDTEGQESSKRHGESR
UniProt Q96RF0: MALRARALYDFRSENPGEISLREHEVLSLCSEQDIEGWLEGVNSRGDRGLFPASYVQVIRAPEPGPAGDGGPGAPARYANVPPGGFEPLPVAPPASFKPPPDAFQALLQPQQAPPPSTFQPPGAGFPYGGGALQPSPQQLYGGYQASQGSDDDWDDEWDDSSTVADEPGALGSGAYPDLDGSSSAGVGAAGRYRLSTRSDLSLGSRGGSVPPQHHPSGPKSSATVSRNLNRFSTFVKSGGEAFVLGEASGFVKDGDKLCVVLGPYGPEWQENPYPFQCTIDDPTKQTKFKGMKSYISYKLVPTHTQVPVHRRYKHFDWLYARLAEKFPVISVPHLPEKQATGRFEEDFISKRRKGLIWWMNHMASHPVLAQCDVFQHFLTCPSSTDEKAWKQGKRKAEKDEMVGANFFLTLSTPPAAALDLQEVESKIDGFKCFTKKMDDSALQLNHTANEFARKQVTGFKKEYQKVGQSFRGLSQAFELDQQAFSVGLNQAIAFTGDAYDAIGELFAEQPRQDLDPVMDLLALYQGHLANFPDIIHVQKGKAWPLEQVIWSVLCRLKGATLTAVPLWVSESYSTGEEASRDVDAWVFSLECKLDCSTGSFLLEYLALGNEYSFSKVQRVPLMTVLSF
UniProt Q9Y5W7: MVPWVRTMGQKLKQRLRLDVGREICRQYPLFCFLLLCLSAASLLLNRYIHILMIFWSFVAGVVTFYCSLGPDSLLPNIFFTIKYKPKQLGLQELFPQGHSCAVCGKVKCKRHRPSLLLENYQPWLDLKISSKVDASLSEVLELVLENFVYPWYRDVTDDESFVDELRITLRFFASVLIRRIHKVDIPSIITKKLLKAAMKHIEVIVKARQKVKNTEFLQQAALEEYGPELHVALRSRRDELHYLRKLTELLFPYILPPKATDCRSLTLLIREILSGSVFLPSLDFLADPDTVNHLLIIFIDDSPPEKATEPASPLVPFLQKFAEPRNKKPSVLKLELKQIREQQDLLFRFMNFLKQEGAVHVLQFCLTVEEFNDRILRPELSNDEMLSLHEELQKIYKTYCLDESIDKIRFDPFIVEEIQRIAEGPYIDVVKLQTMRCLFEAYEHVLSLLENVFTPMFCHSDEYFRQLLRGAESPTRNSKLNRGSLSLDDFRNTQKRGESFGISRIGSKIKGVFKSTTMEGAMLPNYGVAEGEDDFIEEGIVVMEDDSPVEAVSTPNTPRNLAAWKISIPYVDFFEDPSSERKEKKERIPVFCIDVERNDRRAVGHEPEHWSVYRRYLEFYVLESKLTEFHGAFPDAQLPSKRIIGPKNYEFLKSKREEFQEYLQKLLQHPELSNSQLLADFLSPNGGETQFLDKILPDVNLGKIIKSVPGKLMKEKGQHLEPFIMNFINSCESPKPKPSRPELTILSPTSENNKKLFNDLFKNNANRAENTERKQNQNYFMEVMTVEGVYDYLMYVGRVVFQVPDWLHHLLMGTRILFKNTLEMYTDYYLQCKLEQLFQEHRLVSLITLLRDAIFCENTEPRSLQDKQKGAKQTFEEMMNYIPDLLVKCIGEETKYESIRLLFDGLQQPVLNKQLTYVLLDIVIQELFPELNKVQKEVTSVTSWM
UniProt O00161: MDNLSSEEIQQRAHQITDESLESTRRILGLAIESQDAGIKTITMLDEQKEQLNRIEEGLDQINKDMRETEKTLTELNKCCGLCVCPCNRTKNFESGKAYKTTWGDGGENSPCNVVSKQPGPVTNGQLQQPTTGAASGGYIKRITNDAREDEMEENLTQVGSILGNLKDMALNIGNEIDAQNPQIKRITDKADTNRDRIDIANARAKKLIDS
UniProt Q7Z3B0: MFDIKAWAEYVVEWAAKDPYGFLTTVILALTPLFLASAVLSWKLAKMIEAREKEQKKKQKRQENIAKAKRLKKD
UniProt O95219: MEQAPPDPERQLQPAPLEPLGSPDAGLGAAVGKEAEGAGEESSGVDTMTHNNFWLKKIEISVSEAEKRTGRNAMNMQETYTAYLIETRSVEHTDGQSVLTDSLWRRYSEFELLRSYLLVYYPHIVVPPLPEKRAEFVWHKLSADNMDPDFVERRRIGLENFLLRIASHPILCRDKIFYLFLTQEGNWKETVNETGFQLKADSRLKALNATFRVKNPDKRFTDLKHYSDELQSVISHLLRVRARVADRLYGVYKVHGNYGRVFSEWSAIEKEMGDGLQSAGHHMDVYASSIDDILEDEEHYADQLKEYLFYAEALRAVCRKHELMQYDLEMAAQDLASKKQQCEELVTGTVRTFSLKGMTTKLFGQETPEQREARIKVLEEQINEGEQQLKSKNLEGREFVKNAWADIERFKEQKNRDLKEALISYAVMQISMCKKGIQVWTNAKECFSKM
UniProt Q07617: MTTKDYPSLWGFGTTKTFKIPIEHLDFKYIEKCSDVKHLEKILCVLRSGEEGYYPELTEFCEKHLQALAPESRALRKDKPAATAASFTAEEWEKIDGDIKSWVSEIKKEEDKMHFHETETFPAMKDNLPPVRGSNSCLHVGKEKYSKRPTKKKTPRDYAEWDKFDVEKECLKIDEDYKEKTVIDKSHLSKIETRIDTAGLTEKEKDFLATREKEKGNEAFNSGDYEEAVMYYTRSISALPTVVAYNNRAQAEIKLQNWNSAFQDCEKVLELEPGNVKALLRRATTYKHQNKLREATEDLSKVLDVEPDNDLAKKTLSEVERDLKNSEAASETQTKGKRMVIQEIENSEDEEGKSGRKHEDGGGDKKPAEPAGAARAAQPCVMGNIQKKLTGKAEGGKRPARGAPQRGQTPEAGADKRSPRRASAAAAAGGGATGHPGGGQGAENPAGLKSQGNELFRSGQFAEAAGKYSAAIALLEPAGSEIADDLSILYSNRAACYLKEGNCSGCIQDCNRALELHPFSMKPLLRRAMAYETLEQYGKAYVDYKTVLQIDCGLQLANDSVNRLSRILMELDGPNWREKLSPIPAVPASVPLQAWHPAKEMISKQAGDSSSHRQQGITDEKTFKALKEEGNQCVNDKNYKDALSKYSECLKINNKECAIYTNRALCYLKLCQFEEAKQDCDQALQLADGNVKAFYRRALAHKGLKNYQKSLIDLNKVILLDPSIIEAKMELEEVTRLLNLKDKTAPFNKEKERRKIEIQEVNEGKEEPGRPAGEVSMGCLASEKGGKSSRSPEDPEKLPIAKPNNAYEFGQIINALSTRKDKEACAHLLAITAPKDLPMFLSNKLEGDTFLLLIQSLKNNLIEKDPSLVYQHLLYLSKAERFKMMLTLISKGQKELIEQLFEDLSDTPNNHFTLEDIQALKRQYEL
UniProt B2RUZ4: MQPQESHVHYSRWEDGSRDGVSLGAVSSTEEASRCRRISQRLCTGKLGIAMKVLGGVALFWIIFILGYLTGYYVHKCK
UniProt P58511: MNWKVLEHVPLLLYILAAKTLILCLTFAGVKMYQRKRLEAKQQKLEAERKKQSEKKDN
UniProt Q92484: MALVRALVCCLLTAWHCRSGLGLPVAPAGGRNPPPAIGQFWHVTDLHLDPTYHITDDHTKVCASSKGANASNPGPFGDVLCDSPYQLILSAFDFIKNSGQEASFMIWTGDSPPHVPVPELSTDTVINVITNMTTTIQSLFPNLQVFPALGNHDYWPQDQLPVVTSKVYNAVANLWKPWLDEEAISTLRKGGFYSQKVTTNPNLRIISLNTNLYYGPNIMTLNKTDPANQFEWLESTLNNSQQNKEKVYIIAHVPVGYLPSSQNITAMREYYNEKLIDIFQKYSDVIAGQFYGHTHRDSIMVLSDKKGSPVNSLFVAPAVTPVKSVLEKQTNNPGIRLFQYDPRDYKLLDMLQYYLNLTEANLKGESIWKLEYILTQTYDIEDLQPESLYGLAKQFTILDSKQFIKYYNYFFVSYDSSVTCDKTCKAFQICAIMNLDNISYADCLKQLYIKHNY

Experiments:
Experiment in all cases: log2 fold change, soluble protein after heating vs DMSO (PISA); higher = thermal stabilisation; K562 lysate, 10 uM; active = over 0.2 and 3.5 SD of the protein, either way, in both replicates (recomputed)
vemurafenib = compound: CCCS(=O)(=O)Nc1ccc(F)c(C(=O)c2c[nH]c3ncc(-c4ccc(Cl)cc4)cc23)c1F [vemurafenib]
Procedure, shortened: (§1)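 Log-two fold change in thermal stability relative to solvent controls is reported from duplicates. For each sample, crude K562 extract from dounce-homogenised pellets in PBS pH 7.4 with 1 mM MgCl2, at 1 mg/mL protein, was treated with 10 μM compound for 30 min. Aliquots heated for 3 min across 48°C-58°C were pooled, brought to 0.5% NP-40 at 4°C and cleared at 21,000xg for 90 min. The supernatant was quantified by TMTpro 16plex LC-MS/MS with channel sums equalised.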

[1] = compound: CCCS(=O)(=O)Nc1ccc(F)c(C(=O)c2c[nH]c3ncc(Cl)cc23)c1F
Procedure, shortened: as §1

barasertib = compound: CCN(CCCOc1ccc2c(Nc3cc(CC(=O)Nc4cccc(F)c4)[nH]n3)ncnc2c1)CCOP(=O)(O)O [barasertib]
Procedure, shortened: as §1

[2] = compound: CC[C@@H]1C(=O)N(C)c2cnc(Nc3ccc(C(=O)NC4CCN(C)CC4)cc3OC)nc2N1C1CCCC1
Procedure, shortened: as §1

volasertib = compound: CC[C@@H]1C(=O)N(C)c2cnc(Nc3ccc(C(=O)N[C@H]4CC[C@H](N5CCN(CC6CC6)CC5)CC4)cc3OC)nc2N1C(C)C [volasertib]
Procedure, shortened: as §1

[3] = compound: CCn1c(C(=O)N(C2CC2)C2CC2)cc2c3c(ncn3C)c(Nc3cc(C)n(C)n3)nc21
Procedure, shortened: as §1

[4] = compound: CCn1cc(-c2ccnc3[nH]c(-c4cccc(CN(C)C)c4)cc23)c(-c2ccc(NC(=O)N(C)C)cc2)n1
Procedure, shortened: as §1

[5] = compound: CN1CCC(CNc2ccc3ncc(-c4cccc(OC(F)(F)F)c4)n3n2)CC1
Procedure, shortened: as §1

saracatinib = compound: CN1CCN(CCOc2cc(OC3CCOCC3)c3c(Nc4c(Cl)ccc5c4OCO5)ncnc3c2)CC1 [saracatinib]
Procedure, shortened: as §1

sotrastaurin = compound: CN1CCN(c2nc(C3=C(c4c[nH]c5ccccc45)C(=O)NC3=O)c3ccccc3n2)CC1 [sotrastaurin]
Procedure, shortened: as §1

Row | Target | log2 fold change (vemurafenib) | log2 fold change [1] | log2 fold change (barasertib) | log2 fold change [2] | log2 fold change (volasertib) | log2 fold change [3] | log2 fold change [4] | log2 fold change [5] | log2 fold change (saracatinib) | log2 fold change (sotrastaurin)
1 | SMIM8 (UniProt Q96KF7) | inactive: 0.037 | inactive: 0.048 | inactive: 0.088 | inactive: -0.003 | inactive: 0.012 | inactive: 0.057 | active: -0.382 | inactive: 0.177 | inactive: -0.071 | inactive: -0.027
2 | SNCA (UniProt P37840) | inactive: 0.042 | inactive: -0.039 | inactive: -0.027 | inactive: 0.08 | inactive: 0.072 | inactive: -0.022 | inactive: -0.109 | inactive: 0.287 | inactive: -0.035 | inactive: 0.068
3 | SMG5 (UniProt Q9UPR3) | inactive: 0.009 | inactive: 0.048 | inactive: 0.047 | inactive: 0.029 | inactive: -0.006 | inactive: 0.068 | inactive: 0.038 | inactive: -0.004 | inactive: 0.05 | inactive: -0.024
4 | SMN1 (UniProt Q16637) | inactive: 0.031 | inactive: 0.075 | inactive: -0.056 | inactive: -0.026 | inactive: 0 | inactive: -0.037 | inactive: -0.073 | inactive: -0.031 | inactive: 0.053 | inactive: -0.039
5 | SNRPE (UniProt P62304) | inactive: 0.038 | inactive: 0.022 | inactive: -0.079 | inactive: 0.083 | inactive: 0.028 | inactive: 0.032 | inactive: -0.162 | inactive: 0.055 | inactive: 0.017 | inactive: 0.017
6 | SOD2 (UniProt P04179) | inactive: 0.039 | inactive: -0.018 | inactive: -0.013 | inactive: 0.037 | inactive: 0.045 | inactive: 0.007 | inactive: -0.085 | inactive: 0.061 | inactive: -0.031 | inactive: -0.028
7 | SMYD2 (UniProt Q9NRG4) | inactive: 0.012 | inactive: 0.019 | inactive: 0.106 | inactive: -0.056 | inactive: -0.126 | inactive: 0.037 | inactive: -0.005 | inactive: -0.047 | inactive: -0.082 | inactive: -0.047
8 | SNRNP27 (UniProt Q8WVK2) | inactive: -0.008 | inactive: 0.025 | inactive: -0.058 | inactive: 0.035 | inactive: 0.017 | inactive: -0.026 | inactive: 0.031 | inactive: 0.01 | inactive: -0.012 | inactive: 0.099
9 | SMCR8 (UniProt Q8TEV9) | inactive: -0.012 | inactive: 0.077 | inactive: 0.021 | inactive: -0.004 | inactive: 0.026 | inactive: -0.001 | inactive: -0.068 | inactive: 0.021 | inactive: -0.018 | inactive: 0.005
10 | SOAT1 (UniProt P35610) | inactive: 0.047 | inactive: 0.055 | inactive: 0.008 | inactive: -0.003 | inactive: -0.009 | inactive: -0.061 | inactive: -0.063 | inactive: -0.062 | inactive: 0.016 | inactive: 0.019
11 | SOGA1 isoform 2 (UniProt O94964) | inactive: -0.022 | – | inactive: 0.069 | inactive: -0.123 | – | inactive: -0.003 | inactive: -0.025 | inactive: -0.262 | inactive: -0.002 | inactive: -0.004
12 | SMPD4 isoform 4 (UniProt Q9NXE4) | inactive: -0.033 | – | inactive: 0.047 | inactive: -0.145 | – | inactive: 0.062 | inactive: 0.078 | inactive: -0.018 | – | –
13 | SNAPC5 (UniProt O75971) | inactive: -0.063 | – | – | – | – | – | inactive: -0.189 | inactive: 0.155 | – | –
14 | SMYD3 (UniProt Q9H7B4) | inactive: 0.036 | inactive: 0.013 | inactive: 0.017 | inactive: -0.137 | inactive: -0.051 | inactive: -0.02 | – | – | inactive: 0.045 | inactive: -0.005
15 | SMPDL3B (UniProt Q92485) | inactive: 0.036 | inactive: -0.137 | – | inactive: -0.073 | inactive: -0.062 | inactive: 0.013 | inactive: 0.077 | inactive: 0.034 | inactive: -0.009 | inactive: 0.004
16 | SPARC (UniProt P09486) | inactive: 0.061 | – | inactive: 0.04 | inactive: 0.016 | – | inactive: -0.024 | inactive: -0.132 | inactive: -0.083 | inactive: -0.045 | inactive: 0.018
17 | SMC1B isoform 3 (UniProt Q8NDV3) | inactive: 0.149 | inactive: 0.002 | inactive: 0.003 | inactive: -0.073 | inactive: 0.024 | inactive: -0.071 | – | – | inactive: 0.055 | inactive: -0.02

Row | Target | log2 fold change (vemurafenib) | log2 fold change [1] | log2 fold change (barasertib) | log2 fold change [2] | log2 fold change (volasertib) | log2 fold change [3] | log2 fold change [4] | log2 fold change [5] | log2 fold change (saracatinib) | log2 fold change (sotrastaurin)
18 | SNX18 isoform 2 (UniProt Q96RF0) | inactive: -0.125 | inactive: 0.047 | – | inactive: -0.105 | inactive: -0.24 | – | inactive: 0.044 | inactive: -0.13 | – | inactive: -0.2
19 | SNX30 (UniProt Q5VWJ9) | – | inactive: -0.091 | inactive: 0.032 | – | inactive: 0.122 | inactive: -0.002 | inactive: 0.074 | inactive: 0.06 | inactive: 0.004 | inactive: 0.113
20 | SOX11 (UniProt P35716) | inactive: -0.101 | inactive: -0.05 | – | – | inactive: 0.145 | – | – | – | – | inactive: 0.095
21 | SNX14 (UniProt Q9Y5W7) | inactive: -0.053 | inactive: -0.014 | inactive: 0.263 | inactive: 0.354 | inactive: 0.041 | inactive: -0.44 | – | – | inactive: -0.022 | inactive: -0.157
22 | SNAP23 isoform 2 (UniProt O00161) | inactive: 0.172 | inactive: 0.09 | – | inactive: 0.052 | inactive: 0.003 | inactive: -0.029 | inactive: 0.123 | inactive: -0.061 | – | –
23 | SMIM15 (UniProt Q7Z3B0) | inactive: 0.201 | inactive: 0.018 | – | inactive: 0.097 | inactive: 0.033 | inactive: -0.076 | inactive: 0.011 | inactive: 0.025 | inactive: 0.122 | inactive: 0.013
24 | SOHLH2 isoform 3 (UniProt Q9NX45) | – | inactive: 0.008 | inactive: -0.029 | inactive: -0.038 | inactive: 0.078 | inactive: -0.003 | inactive: -0.029 | inactive: 0.112 | inactive: 0.038 | inactive: 0.067
25 | SPAG9 isoform 4 (UniProt O60271) | inactive: 0.114 | – | inactive: 0.011 | inactive: -0.026 | – | inactive: 0.018 | inactive: -0.123 | inactive: -0.016 | – | inactive: 0.133
26 | SOX12 (UniProt O15370) | inactive: 0.165 | – | inactive: 0.115 | – | – | – | inactive: 0.124 | inactive: 0.053 | inactive: 0.157 | inactive: 0.054
27 | SNRPN isoform 2 (UniProt P63162) | inactive: 0.046 | inactive: 0.161 | – | inactive: 0.191 | inactive: -0.162 | – | inactive: 0.118 | inactive: -0.067 | – | inactive: 0.059
28 | SNX4 (UniProt O95219) | inactive: 0.002 | – | inactive: 0.052 | inactive: -0.019 | – | inactive: -0.058 | inactive: -0.022 | inactive: -0.008 | inactive: 0.009 | inactive: 0.014
29 | SPAG1 (UniProt Q07617) | inactive: 0.041 | inactive: 0.028 | inactive: 0.018 | – | inactive: -0.137 | inactive: 0.083 | – | – | – | inactive: -0.02
30 | SMIM1 (UniProt B2RUZ4) | – | inactive: 0.013 | inactive: 0.002 | inactive: -0.108 | inactive: 0.026 | inactive: -0.096 | inactive: -0.036 | inactive: -0.222 | – | inactive: 0.088
31 | SMIM11A (UniProt P58511) | inactive: 0.035 | inactive: -0.288 | – | inactive: -0.302 | inactive: -0.016 | – | – | – | – | inactive: 0.046
32 | SMPDL3A (UniProt Q92484) | inactive: 0.126 | inactive: -0.066 | – | inactive: 0.028 | inactive: -0.13 | – | – | – | – | –
33 | SP6 (UniProt Q3SY56) | inactive: 0.075 | inactive: 0.051 | – | inactive: 0.031 | inactive: 0.023 | inactive: 0.015 | inactive: 0.284 | inactive: -0.001 | inactive: 0.106 | inactive: 0.016

Part of the list above, as tab-separated lines.
Row	Target	log2 fold change (vemurafenib)	log2 fold change [1]	log2 fold change (barasertib)	log2 fold change [2]	log2 fold change (volasertib)	log2 fold change [3]	log2 fold change [4]	log2 fold change [5]	log2 fold change (saracatinib)	log2 fold change (sotrastaurin)
31	SMIM11A (UniProt P58511)	inactive: 0.035	inactive: -0.288	–	inactive: -0.302	inactive: -0.016	–	–	–	–	inactive: 0.046
32	SMPDL3A (UniProt Q92484)	inactive: 0.126	inactive: -0.066	–	inactive: 0.028	inactive: -0.13	–	–	–	–	–
